Assay results reported in paper PMC8989081.
No constants are given. Whether binding was seen depends on the method and setting. Binding seen in cells or lysates may run through a third protein. Some binding calls cover weakened binding; strength is not graded here. For some of these results: Sequences can lack the tags named with a protein.

By UniProt entry, the sequences of proteins in these tests, tags left out.
UniProt O96028: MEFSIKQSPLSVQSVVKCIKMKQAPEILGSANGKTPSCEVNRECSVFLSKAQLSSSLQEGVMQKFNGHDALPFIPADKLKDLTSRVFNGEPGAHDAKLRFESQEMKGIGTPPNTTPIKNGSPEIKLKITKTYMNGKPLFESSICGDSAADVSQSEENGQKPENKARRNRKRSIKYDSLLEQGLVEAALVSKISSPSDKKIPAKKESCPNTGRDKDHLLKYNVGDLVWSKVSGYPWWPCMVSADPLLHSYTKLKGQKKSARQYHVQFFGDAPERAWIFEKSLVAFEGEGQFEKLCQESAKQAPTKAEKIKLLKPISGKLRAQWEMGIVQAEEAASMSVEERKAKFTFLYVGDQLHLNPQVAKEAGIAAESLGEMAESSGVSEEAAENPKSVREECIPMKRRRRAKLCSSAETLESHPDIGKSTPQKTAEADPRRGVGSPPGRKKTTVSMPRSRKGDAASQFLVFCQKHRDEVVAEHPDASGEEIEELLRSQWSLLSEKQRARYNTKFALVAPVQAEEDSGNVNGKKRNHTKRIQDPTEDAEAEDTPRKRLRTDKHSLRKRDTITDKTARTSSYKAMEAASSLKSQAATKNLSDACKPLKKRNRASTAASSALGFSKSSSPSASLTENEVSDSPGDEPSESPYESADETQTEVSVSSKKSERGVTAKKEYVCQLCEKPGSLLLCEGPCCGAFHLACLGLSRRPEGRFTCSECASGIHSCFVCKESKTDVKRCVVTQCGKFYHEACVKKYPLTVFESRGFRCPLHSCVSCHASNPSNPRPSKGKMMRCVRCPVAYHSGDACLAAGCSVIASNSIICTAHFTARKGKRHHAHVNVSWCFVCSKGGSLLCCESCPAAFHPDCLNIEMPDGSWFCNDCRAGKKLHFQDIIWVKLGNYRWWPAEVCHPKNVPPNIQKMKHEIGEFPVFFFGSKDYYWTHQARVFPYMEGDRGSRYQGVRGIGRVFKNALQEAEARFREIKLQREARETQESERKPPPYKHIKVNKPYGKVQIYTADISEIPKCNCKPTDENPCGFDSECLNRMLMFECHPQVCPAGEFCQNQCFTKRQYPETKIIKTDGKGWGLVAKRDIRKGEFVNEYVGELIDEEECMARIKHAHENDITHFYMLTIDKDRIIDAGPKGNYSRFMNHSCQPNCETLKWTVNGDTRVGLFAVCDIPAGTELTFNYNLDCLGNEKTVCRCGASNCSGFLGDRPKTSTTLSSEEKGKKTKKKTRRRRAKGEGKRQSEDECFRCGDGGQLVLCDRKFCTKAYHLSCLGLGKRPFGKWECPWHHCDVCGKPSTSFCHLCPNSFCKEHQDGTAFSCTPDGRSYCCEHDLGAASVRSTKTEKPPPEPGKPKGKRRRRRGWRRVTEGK

Tests used:
[1] = molecular target: T1, GST-Aurora A fusion protein (UniProt O14965); assay: pull-down; GST-Aurora A from BL21 on glutathione agarose beads; HA-NSD2 from HEK-293T cells; blots with HA antibody and Aurora A antibody; only the target purified
T1 sequence: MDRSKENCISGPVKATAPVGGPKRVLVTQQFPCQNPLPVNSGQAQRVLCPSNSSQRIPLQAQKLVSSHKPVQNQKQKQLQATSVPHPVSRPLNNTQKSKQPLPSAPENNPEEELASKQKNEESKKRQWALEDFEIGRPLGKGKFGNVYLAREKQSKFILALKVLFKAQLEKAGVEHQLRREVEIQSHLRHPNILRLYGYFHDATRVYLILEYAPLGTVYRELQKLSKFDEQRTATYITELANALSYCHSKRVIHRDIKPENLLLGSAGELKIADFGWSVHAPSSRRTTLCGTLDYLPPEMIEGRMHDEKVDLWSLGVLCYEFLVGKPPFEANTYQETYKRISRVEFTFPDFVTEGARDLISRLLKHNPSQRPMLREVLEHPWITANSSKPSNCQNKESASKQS

[2] = molecular target: T2, Aurora A-Flag (UniProt O14965); assay: co-IP; exogenous tagged proteins in transfected HEK293T cells; NP-40 buffer; anti-FLAG M2 affinity gel; western blot; both tag arrangements
T2 sequence: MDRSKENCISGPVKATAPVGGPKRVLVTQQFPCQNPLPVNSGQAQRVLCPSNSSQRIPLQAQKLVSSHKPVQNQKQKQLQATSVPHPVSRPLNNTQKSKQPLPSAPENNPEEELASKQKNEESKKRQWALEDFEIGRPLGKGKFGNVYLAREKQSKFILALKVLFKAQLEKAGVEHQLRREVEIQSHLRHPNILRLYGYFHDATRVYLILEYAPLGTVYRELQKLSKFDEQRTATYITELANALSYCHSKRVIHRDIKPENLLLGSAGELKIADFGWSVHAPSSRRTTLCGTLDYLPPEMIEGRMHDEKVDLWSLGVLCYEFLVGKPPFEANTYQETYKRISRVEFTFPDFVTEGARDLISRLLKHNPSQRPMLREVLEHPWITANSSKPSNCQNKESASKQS

[3] = molecular target: NSD2 (human (endogenous in LP-1 and MM.1S)) (UniProt O96028); assay: co-IP; endogenous proteins in LP-1 and MM.1S cells; lysate supernatant in NP-40 buffer with the corresponding antibody, then protein G dynabeads, 4°C overnight; western blot
[4] = molecular target: NSD2-Flag (UniProt O96028); assay: co-IP; exogenous tagged proteins in transfected HEK293T cells; NP-40 buffer; anti-FLAG M2 affinity gel; western blot; both tag arrangements

With NSD2-HA (from UniProt O96028 1-1365) the binding [1] was “binds” and the binding [2] was “binds”.

B1: Aurora kinase A (protein, UniProt O14965 1-403)
chain: MDRSKENCISGPVKATAPVGGPKRVLVTQQFPCQNPLPVNSGQAQRVLCPSNSSQRIPLQAQKLVSSHKPVQNQKQKQLQATSVPHPVSRPLNNTQKSKQPLPSAPENNPEEELASKQKNEESKKRQWALEDFEIGRPLGKGKFGNVYLAREKQSKFILALKVLFKAQLEKAGVEHQLRREVEIQSHLRHPNILRLYGYFHDATRVYLILEYAPLGTVYRELQKLSKFDEQRTATYITELANALSYCHSKRVIHRDIKPENLLLGSAGELKIADFGWSVHAPSSRRTTLCGTLDYLPPEMIEGRMHDEKVDLWSLGVLCYEFLVGKPPFEANTYQETYKRISRVEFTFPDFVTEGARDLISRLLKHNPSQRPMLREVLEHPWITANSSKPSNCQNKESASKQS
B1 was tested, and the binding [3] was “binds”.

B2: Aurora A-HA (protein, UniProt O14965 1-403)
chain: MDRSKENCISGPVKATAPVGGPKRVLVTQQFPCQNPLPVNSGQAQRVLCPSNSSQRIPLQAQKLVSSHKPVQNQKQKQLQATSVPHPVSRPLNNTQKSKQPLPSAPENNPEEELASKQKNEESKKRQWALEDFEIGRPLGKGKFGNVYLAREKQSKFILALKVLFKAQLEKAGVEHQLRREVEIQSHLRHPNILRLYGYFHDATRVYLILEYAPLGTVYRELQKLSKFDEQRTATYITELANALSYCHSKRVIHRDIKPENLLLGSAGELKIADFGWSVHAPSSRRTTLCGTLDYLPPEMIEGRMHDEKVDLWSLGVLCYEFLVGKPPFEANTYQETYKRISRVEFTFPDFVTEGARDLISRLLKHNPSQRPMLREVLEHPWITANSSKPSNCQNKESASKQS
B2 was tested, and the binding [4] was “binds”.
